Literature values in US20200093807A1, “NEW USE OF RIFAMYCIN-NITROIMIDAZOLE CONJUGATE MOLECULE” (TenNor Therapeutics Limited, priority 2017, published 2020).
At least one structure is not confirmed: it was looked up by name or label, or the drawing left a doubt.

System: Bacteroides fragilis (QC) ATCC 25285
Details: range printed in parentheses; cited from earlier work

## CCC[C@@H]1C[C@@H](C(=O)N[C@@H]([C@H]2O[C@H](SC)[C@H](O)[C@@H](O)[C@H]2O)[C@H](C)Cl)N(C)C1 [Clindamycin]
  MIC range in parentheses (QC strain reference range): 0.25 to 2 µg/mL
